According to PMC5171702:
These are yes or no findings as the source states them, for the method shown. In cells and extracts the contact can be indirect. Some entries that bind do so weakly or less than the wild type. Each block holds one binder with its values, some of them ahead of it.

The chains behind the UniProt entries cited, without tags or fusion partners. Where a name states a change or a piece, a line headed by the entry shows the natural chain unless it says otherwise.
UniProt P61586: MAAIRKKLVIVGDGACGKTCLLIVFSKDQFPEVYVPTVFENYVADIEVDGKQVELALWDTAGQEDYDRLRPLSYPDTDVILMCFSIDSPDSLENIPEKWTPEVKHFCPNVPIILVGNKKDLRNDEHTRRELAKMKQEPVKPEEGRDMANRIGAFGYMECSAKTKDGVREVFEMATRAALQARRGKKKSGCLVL

Target: agarose-conjugated nucleotide-free RhoA mutant (RhoA^G17A) (UniProt P61586)
Test: pull-down; RhoA^G17A agarose beads (40 ul bed volume) rotated 30 min with 1 mg lysate of hearts or cardiac cells; RhoGEF buffer: 20 mM HEPES pH 7.5, 150 mM NaCl, 1% Triton X-100, 5 mM MgCl2, 1 mM DTT; mouse hearts sham or 1 week after TAC, TRPC3+/+ or TRPC3-/-; NRCMs with or without mechanical stretch, TRPC3 or Nox2 siRNA, DPI, taxol, okadaic acid; rat fibroblasts with or without TGF-beta2 and TRPC3 siRNA; read out as GEF-H1 activation; only the target purified

binding: binds
B1: GEF-H1 (microtubule-associated Rho guanine nucleotide exchange factor), rat (protein, UniProt Q5FVC2 1-985)
chain: MSRIESLTRARIDRSKEQATKTREKEKMKEAKDARYTNGHLFTTISVSGMTMCYACNKSITAKEALICPTCNVTIHNRCKDTLANCTKVKQKQQKAALLRNNTALQSVSLRSKTTTRERPTSAIYPSDSFRQSLLGSRRGLSSLSLAKSVSTTNIAGHFNDESPLGLRQILSQSTDSLNMRNRTLSVESLIDEGVEVFYNELMSDFEMDEKDFEADSWSLAVDSSFLQQHKKEVMKKQDVIYELIQTELHHVRTLKIMTRLFRTGMLEELQMEPEVVQGLFPCVDELSDIHTRFLSQLLERRRQALCPGSTRNFVIHRLGDLLISQFSGSNAEQMRKTYSEFCSRHTKALKLYKELYARDKRFQQFIRKMTRSAVLKRHGVQECILLVTQRITKYPVLINRILQNSHGIEEEYQDLAAALGLVKELLSNVDQDVHELEKEARLQEIYNRMDPRAQTPVPGKGPFGRDELLRRKLIHDGCLLWKTATGRFKDVLLLLMTDVLVFLQEKDQKYIFTSLDKPSVVSLQNLIVRDIANQAKGMFLISSGPPEMYEVHAASRDDRTTWIRVIQQSVRLCPSREDFPLIETEDKAYLRRIKTKLQQKNQALVELLQMNVELFAEMVHFQALKAGFIGMPPPTLPRGLFRLESFESLRGERLLKDALREVEGLKDLLLGPCVDLPLTAREPALPVEADSGSCPGVTANGEARTFNGSIELCRADSDSSQKDRNGNQLRSPQEEALQPLVNLYGLLQGLQAVVVQQERLMEALFPEGPERWEKLSRANSRDGEAGRAAVASVTPEKQATELALLQRQHSLLQEELRRCQRLGEERATEAGSLEARLRESEQARALLEREAEEIRRQLAALGQNEPLPAEAPWARRPLDPRRRSLPAGDALYLSFNPPQPSRGHDRLDLPVTVRSLHRPFDDREAQELGSPEDRLQDSSDPDTCSEEEVSSRLSPPHSPRDFTRMQDIPEETESRDGEPTASES

binding: binds
B2: GEF-H1 (microtubule-associated Rho guanine nucleotide exchange factor), mouse (protein, UniProt Q60875 1-985)
chain: MSRIESLTRARIDRSKEQATKTREKEKMKEAKDARYTNGHLFTTISVSGMTMCYACNKSITAKEALICPTCNVTIHNRCKDTLANCTKVKQKQQKAALLRNNTALQSVSLRSKTTTRERPTSAIYPSDSFRQSLLGSRRGLSSLSLAKSVSTTNIAGHFNDESPLGLRQILSQSTDSLNMRNRTLSVESLIDEGVEVFYNELMSDFEMDEKDFEADSWSLAVDSSFLQQHKKEVMKKQDVIYELIQTELHHVRTLKIMTRLFRTGMLEELQMEPEVVQGLFPCVDELSDIHTRFLNQLLERRRQALCPGSTRNFVIHRLGDLLISQFSGSNAEQMRKTYSEFCSRHTKALKLYKELYARDKRFQQFIRKMTRSAVLKRHGVQECILLVTQRITKYPVLINRILQNSHGVEEEYQDLASALGLVKELLSNVDQDVHELEKEARLQEIYNRMDPRAQTPVPGKGPFGRDELLRRKLIHEGCLLWKTATGRFKDVLLLLMTDVLVFLQEKDQKYIFTSLDKPSVVSLQNLIVRDIANQAKGMFLISSGPPEMYEVHAASRDDRTTWIRVIQQSVRLCPSREDFPLIETEDKAYLRRIKTKLQQKNQALVELLQKNVELFAEMVHFQALKAGFVGMPPPALPRGLFRLESFESLRGERLLKDALREVEGLKDLLLGPCVDLPMTSREPALPLDSDSGSCPGVTANGEARTFNGSIELCRADSDSSQKDRNGNQLRSPQEEVLQPLINLYGLLHGLQAVVVQQERLMEALFPEGPERWEKLSRANSRDGEAGRAAVASVTPEKQATELALLQRQHTLLQEELRRCQRLGEERATEAGSLEARLRESEQARALLEREAEEIRRQLAALGQNEPLPAEAPWARRPLDPRRRSLPAGDALYLSFNPPQPSRGHDRLDLPVTVRSLHRPFDDREAQELGSPEDRLQDSSDPDTGSEEEVSSRLSPPHSPRDFTRMQDIPEETESRDGEPTASES
